The entries are a selection whose mix differs from that of the whole data set.

Sequences of proteins named here, by UniProt entry; tags and fusion partners are left off. A change or cut given only in a name is not applied to a line headed by its entry.
UniProt Q7LBC6: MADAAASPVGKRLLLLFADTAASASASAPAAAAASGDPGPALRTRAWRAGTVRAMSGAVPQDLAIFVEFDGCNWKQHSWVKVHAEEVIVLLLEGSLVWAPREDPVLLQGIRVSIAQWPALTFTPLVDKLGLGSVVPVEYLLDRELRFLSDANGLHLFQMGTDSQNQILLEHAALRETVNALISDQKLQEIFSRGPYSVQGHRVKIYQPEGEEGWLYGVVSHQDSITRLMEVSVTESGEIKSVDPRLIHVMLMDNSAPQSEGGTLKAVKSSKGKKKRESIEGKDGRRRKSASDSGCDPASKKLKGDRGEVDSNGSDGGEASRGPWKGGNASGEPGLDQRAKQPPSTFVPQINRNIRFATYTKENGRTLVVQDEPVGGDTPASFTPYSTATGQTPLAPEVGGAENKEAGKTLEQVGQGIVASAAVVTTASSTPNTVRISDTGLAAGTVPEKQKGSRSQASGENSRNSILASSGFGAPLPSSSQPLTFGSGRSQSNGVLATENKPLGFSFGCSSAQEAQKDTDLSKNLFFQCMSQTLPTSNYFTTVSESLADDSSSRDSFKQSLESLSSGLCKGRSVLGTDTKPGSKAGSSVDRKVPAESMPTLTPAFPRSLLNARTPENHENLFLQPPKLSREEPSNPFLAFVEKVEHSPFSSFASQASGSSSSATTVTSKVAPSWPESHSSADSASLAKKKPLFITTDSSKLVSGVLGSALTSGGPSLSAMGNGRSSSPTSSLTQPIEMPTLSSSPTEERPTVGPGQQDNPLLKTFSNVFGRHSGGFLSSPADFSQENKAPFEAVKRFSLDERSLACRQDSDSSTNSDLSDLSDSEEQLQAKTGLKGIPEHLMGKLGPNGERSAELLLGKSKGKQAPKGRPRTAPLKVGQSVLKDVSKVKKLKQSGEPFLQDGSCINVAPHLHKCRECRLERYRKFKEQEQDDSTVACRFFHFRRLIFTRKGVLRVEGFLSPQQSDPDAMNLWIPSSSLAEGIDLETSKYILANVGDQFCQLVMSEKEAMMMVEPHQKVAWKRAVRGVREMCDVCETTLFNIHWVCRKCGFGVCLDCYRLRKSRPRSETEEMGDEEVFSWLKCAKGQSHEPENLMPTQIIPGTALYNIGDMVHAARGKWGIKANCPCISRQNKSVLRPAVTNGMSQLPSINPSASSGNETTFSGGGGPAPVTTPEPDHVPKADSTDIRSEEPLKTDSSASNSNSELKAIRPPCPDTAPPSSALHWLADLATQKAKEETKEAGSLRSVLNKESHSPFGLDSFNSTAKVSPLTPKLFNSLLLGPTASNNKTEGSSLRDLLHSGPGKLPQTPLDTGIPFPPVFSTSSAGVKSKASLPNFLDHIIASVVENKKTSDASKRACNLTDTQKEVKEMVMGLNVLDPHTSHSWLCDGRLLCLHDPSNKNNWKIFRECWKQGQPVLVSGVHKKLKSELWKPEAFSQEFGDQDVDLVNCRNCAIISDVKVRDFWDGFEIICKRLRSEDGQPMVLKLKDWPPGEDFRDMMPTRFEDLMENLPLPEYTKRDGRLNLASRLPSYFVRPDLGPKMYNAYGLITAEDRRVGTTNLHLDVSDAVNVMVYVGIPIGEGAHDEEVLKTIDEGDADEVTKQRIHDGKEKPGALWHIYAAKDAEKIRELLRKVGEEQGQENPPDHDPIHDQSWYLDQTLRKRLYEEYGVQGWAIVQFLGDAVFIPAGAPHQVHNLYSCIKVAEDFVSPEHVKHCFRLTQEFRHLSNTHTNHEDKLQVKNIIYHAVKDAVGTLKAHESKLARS
UniProt Q8IW35: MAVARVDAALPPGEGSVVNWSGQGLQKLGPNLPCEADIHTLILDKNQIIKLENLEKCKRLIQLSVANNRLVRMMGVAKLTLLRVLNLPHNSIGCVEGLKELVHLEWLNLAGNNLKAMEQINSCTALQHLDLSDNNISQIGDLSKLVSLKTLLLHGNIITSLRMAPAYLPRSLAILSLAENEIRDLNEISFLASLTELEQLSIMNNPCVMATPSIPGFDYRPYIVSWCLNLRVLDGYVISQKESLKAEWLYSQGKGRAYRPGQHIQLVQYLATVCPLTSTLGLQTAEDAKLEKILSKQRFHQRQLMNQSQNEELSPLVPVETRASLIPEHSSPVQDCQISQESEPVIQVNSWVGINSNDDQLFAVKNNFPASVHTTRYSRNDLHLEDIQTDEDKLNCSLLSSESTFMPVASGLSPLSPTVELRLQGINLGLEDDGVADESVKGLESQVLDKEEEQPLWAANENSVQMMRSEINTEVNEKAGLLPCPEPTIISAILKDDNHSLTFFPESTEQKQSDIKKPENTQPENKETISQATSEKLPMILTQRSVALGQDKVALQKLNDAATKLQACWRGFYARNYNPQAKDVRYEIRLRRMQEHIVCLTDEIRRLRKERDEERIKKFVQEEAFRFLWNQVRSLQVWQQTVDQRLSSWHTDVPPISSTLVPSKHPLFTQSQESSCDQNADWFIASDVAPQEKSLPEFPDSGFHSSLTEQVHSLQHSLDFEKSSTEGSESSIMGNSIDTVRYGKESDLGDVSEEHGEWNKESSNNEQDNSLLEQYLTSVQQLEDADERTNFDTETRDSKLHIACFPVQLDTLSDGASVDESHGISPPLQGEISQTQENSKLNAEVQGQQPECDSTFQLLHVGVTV
UniProt Q7Z2Z2: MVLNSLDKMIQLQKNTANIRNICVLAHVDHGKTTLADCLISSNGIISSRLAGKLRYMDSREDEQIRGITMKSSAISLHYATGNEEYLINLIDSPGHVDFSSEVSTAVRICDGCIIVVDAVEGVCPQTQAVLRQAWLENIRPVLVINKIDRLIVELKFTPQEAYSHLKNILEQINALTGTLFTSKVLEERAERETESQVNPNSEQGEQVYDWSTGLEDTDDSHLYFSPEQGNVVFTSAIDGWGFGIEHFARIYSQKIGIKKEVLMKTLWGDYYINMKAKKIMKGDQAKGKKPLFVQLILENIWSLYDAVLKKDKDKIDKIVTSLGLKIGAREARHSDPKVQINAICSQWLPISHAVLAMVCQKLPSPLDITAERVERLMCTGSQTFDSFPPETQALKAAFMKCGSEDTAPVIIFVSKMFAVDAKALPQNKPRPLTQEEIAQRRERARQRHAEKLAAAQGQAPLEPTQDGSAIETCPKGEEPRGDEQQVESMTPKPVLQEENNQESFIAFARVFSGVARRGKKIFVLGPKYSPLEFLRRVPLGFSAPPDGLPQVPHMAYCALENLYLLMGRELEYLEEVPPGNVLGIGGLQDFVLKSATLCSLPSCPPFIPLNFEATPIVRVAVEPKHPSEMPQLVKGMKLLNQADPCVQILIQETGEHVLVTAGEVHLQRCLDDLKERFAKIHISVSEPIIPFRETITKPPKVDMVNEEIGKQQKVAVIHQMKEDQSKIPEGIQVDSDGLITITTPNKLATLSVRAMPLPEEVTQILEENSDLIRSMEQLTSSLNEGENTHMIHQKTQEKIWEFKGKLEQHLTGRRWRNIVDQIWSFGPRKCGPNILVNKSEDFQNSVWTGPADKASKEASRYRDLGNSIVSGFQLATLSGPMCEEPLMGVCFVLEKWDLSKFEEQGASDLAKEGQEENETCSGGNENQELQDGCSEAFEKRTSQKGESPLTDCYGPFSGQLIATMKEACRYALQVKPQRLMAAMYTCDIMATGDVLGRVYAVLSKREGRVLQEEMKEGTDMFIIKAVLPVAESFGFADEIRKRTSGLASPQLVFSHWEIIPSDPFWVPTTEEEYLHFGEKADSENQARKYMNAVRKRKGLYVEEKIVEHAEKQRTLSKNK
UniProt Q8IWS0: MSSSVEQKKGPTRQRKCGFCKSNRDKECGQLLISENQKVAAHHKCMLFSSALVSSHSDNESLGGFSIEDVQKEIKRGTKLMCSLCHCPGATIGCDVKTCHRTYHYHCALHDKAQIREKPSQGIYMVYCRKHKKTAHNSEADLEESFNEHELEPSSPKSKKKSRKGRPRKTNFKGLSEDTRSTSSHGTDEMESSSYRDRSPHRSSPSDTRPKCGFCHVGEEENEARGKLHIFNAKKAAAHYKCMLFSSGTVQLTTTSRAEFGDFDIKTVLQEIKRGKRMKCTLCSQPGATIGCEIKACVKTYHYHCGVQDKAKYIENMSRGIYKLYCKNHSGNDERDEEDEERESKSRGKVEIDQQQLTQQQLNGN
UniProt Q7Z2T5: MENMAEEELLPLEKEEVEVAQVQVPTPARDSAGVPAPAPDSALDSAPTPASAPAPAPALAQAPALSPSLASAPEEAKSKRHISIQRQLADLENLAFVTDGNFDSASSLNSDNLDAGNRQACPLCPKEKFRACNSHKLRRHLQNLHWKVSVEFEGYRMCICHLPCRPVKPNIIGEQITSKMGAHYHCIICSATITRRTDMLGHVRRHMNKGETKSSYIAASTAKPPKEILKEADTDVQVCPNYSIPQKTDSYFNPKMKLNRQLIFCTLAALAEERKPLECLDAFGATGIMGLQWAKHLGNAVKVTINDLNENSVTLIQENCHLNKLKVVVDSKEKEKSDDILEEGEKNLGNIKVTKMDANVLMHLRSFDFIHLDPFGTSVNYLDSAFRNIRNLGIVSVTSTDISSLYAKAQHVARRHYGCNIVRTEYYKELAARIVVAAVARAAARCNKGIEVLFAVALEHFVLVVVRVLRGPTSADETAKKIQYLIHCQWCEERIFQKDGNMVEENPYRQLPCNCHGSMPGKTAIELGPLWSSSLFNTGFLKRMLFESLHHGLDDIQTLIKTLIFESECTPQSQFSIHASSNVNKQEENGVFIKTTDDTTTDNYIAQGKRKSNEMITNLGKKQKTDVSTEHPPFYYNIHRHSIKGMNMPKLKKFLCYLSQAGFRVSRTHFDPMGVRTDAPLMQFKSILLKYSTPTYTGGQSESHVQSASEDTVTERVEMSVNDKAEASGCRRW
UniProt Q86XL3: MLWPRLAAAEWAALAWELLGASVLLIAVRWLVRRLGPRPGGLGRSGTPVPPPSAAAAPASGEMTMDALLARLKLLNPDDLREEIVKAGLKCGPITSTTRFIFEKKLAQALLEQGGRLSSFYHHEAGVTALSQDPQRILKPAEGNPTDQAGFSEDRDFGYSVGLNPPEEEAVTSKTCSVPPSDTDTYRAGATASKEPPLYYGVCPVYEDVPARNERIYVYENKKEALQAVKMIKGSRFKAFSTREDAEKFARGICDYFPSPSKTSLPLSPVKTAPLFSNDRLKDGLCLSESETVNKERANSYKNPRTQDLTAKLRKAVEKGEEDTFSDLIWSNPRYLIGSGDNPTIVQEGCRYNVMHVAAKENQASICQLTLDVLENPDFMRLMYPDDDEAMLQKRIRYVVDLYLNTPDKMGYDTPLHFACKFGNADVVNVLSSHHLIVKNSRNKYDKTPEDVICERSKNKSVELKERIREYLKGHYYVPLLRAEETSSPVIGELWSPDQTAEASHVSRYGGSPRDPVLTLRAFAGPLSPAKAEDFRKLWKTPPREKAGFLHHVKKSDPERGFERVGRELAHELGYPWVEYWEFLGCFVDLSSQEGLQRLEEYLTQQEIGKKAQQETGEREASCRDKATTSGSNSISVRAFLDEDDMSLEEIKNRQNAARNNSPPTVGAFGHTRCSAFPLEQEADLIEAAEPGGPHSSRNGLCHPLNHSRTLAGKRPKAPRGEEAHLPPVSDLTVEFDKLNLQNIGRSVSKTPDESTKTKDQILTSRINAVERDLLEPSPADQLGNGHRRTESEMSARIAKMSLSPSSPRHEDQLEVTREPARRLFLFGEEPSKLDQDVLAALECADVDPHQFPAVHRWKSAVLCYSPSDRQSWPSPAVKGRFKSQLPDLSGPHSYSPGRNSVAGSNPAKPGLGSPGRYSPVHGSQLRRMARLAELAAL
UniProt Q86YP4: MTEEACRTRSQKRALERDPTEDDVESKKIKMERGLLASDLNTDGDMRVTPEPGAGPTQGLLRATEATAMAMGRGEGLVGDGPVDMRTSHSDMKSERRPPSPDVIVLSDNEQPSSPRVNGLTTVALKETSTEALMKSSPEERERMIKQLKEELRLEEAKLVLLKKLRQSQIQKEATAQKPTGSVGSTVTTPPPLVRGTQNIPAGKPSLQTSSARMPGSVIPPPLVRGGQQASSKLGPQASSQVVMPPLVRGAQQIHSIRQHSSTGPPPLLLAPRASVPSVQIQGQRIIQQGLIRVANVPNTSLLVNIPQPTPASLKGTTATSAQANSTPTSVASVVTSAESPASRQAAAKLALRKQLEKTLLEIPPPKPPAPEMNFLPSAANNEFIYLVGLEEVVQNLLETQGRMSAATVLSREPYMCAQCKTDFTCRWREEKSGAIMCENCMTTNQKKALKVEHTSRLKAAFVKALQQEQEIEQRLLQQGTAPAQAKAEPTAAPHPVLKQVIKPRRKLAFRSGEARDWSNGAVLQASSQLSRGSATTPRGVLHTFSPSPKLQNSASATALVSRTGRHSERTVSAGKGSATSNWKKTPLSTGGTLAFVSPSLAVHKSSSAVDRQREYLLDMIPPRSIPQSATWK

Compound in the test: COC(=O)C#Cc1ccccc1 [methyl 3-phenylpropiolate]
Briefly: log2 ratio of iodoacetamide-alkyne labeling of the cysteine site, DMSO over compound (competition); higher = stronger covalent engagement of the cysteine by the compound, active = 1 or more. The note with it: 500 µM; treatment time 1 h; system: HEK293T cell lysate. The essentials: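 Three replicates, each with duplicate channels, were prepared from HEK293T lysate (2 mg/mL) treated with vehicle or electrophile at 500 µM for 1 h at ambient temperature. Iodoacetamide alkyne was then applied for 1 h, and samples were clicked to sCIP-TMT reagents, pooled, trypsin-digested overnight at 37 °C, enriched on streptavidin, acid-eluted and analysed on Orbitrap Eclipse LC-MS/MS with FAIMS, with FragPipe quantification. The log2 competition ratio per cysteine is the mean control-channel divided by the mean compound-channel reporter intensity. Cysteines quantified in only one replicate were left out.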
As for UniProt Q7LBC6_C1448, the “log2 ratio of iodoacetamide-alkyne labeling” value (“log2 ratio” for short) is inactive: 0.222.

Consider SLFN11 C51 (UniProt Q7Z7L1), for which the “log2 ratio” value was inactive: 0.0378.

In the case of PHLDB2 C385 (UniProt Q86SQ0), the “log2 ratio” value was inactive: 0.605.

CEP97 C336 (UniProt Q8IW35): the “log2 ratio” value is inactive: 0.493.

IRF2BP1 C280 (UniProt Q8IU81): the “log2 ratio” value is inactive: 0.219.

As to VRK3 C191 (UniProt Q8IV63), the “log2 ratio” value is inactive: 0.575.

USP48 C80 (UniProt Q86UV5): the “log2 ratio” value was inactive: 0.174.

On to CRLF3 C95 (UniProt Q8IUI8), for which the “log2 ratio” value is inactive: 0.136.

With UniProt Q7LBC6_C1470, the “log2 ratio” value was inactive: 0.686.

Regarding UniProt Q86Y56_C420, the “log2 ratio” value was inactive: 0.492.

On to CENPV C240 (UniProt Q7Z7K6), for which the “log2 ratio” value was inactive: -0.145.

Regarding UniProt Q86Y56_C173, the “log2 ratio” value is inactive: 0.779.

For the target EXOC8 C172 (UniProt Q8IYI6), the “log2 ratio” value is inactive: 0.0248.

In the case of RSRC2 C382 (UniProt Q7L4I2), the “log2 ratio” value is inactive: 0.217.

As for PHACTR4 C328 (UniProt Q8IZ21), the “log2 ratio” value was inactive: 0.262.

As for DHX30 C1183 (UniProt Q7L2E3), the “log2 ratio” value is inactive: 0.0938.

With UniProt Q7Z5K2_C675, the “log2 ratio” value is inactive: 0.557.

Take ANKHD1 C777 (UniProt Q8IWZ3): the “log2 ratio” value is inactive: 0.251.

In the case of UniProt Q7LBC6_C1212, the “log2 ratio” value was inactive: 0.571.

On to UniProt Q7Z2Z2_C604, for which the “log2 ratio” value was inactive: 0.247.

As for TMEM192 C266 (UniProt Q8IY95), the “log2 ratio” value is inactive: 0.418.

As for CEP97 C484 (UniProt Q8IW35), the “log2 ratio” value was inactive: 0.117.

In the case of RPUSD2 C246 (UniProt Q8IZ73), the “log2 ratio” value is inactive: -0.128.

For UniProt Q7Z4V5_C631, the “log2 ratio” value was inactive: 0.0968.

Consider KIAA2013 C185 (UniProt Q8IYS2), for which the “log2 ratio” value was inactive: 0.14.

In the case of MEPCE C54 (UniProt Q7L2J0), the “log2 ratio” value was inactive: 0.279.

As for PHF6 C28 (UniProt Q8IWS0), the “log2 ratio” value was inactive: 0.287.

Take ZC3HC1 C5 (UniProt Q86WB0): the “log2 ratio” value was inactive: 0.311.

Take FASTKD5 C525 (UniProt Q7L8L6): the “log2 ratio” value was inactive: 0.511.

Take LARP4 C599 (UniProt Q71RC2): the “log2 ratio” value was inactive: 0.484.

Take IRF2BP2 C40 (UniProt Q7Z5L9): the “log2 ratio” value was inactive: 0.276.

As to PEG10 C78 (UniProt Q86TG7), the “log2 ratio” value was inactive: 0.121.

In the case of DHX37 C1026 (UniProt Q8IY37), the “log2 ratio” value is inactive: 0.317.

Take UniProt Q7Z2T5_C239: the “log2 ratio” value was active: 1.28.

Take ANKLE2 C254 (UniProt Q86XL3): the “log2 ratio” value is inactive: 0.948.

In the case of CEP97 C396 (UniProt Q8IW35), the “log2 ratio” value is inactive: 0.126.

On to GATAD2A C417 (UniProt Q86YP4), for which the “log2 ratio” value was inactive: 0.297.

These data come from the supplement of paper PMC11006884.
